# Data from PubChem BioAssay AID248 (DTP/NCI, 2004).
# The list does not hold the whole screen: it is rich in T/C values a quarter to a half above the control, in often repeated tests (any T/C) and in doses without a T/C. Other doses and runs of a compound stand elsewhere. T/C: endpoint of the treated group in % of that of the vehicle group. Some doses have a count of surviving animals in place of a T/C: the source holds a T/C of zero for them, seemingly a mark for toxic or unscored doses. Some survivor counts are full or nearly so, which does not show that the dose was tolerated: the source hardly ever lists a survival T/C far under the control, and the zero likely stands for such cases as well. Counts of survivors are from the toxicity check (mostly the fifth day) where no day follows; animals may have died later. Schedules are NCI's codes, taken here to give the interval after Q, in days (D) or hours (H), and the number of doses after X. Some schedule codes hold Z or #, which are not explained here. Some entries were tested several times; the results are listed from low to high. For survival time, this PubChem deposit counts one and a half times the control or more as active, and values a quarter to a half above the control carry no call in these data; other NCI protocols may use other cut-offs.
# Test system: L1210 leukemia ip in BDF1 mice, survival T/C
# Assay: NCI In Vivo Anticancer Drug Screen. Data for tumor model L1210 Leukemia (intraperitoneal) in B6D2F1 (BDF1) mice
# Conditions: T/C endpoint: mean survival time, higher T/C = longer survival
# [1] = dose: 200.0 mg/kg/injection, schedule: Q01DX001 (ip), vehicle: saline with Tween-80
# [2] = dose: 400.0 mg/kg/injection, schedule: Q01DX001 (ip), vehicle: saline with Tween-80
# [3] = dose: 400.0 mg/kg/injection, schedule: Q01DX009 (ip), vehicle: saline with Tween-80
# [4] = dose: 300.0 mg/kg/injection, schedule: Q01DX001 (ip), vehicle: saline
# [5] = dose: 400.0 mg/kg/injection, schedule: Q04DX002 (ip), vehicle: saline with Tween-80
smiles,measurement,setting,value
C(=N/Nc1ccccn1)/c1cccnc1,survivor count,[1],3 of 6
same,survivor count,[2],3 of 6
CCCCN=Cc1ccccc1,survivor count,[3],1 of 6
Cc1ccc(N=Nc2c(C)nc(N)nc2C)cc1,survivor count,[4],3 of 6
Nc1cnc([S][Sn]([c]2ccccc2)([c]2ccccc2)[c]2ccccc2)s1,survivor count,"dose: 100.0 mg/kg/injection, schedule: Q04DX002 (ip), vehicle: saline with Tween-80",0 of 3
same,survivor count,"dose: 200.0 mg/kg/injection, schedule: Q04DX002 (ip), vehicle: saline with Tween-80",0 of 3
same,survivor count,[5],0 of 3
COc1c(C)c2c(c(O)c1C/C=C(\C)CCC(=O)O)C(=O)OC2,T/C,"dose: 119.0 mg/kg/injection, schedule: Q01DX009 (ip), vehicle: saline",128 % of control
same,T/C,"dose: 178.0 mg/kg/injection, schedule: Q01DX009 (ip), vehicle: saline",129 % of control
same,T/C,"dose: 267.0 mg/kg/injection, schedule: Q01DX009 (ip), vehicle: saline",129 % of control
same,T/C,"dose: 400.0 mg/kg/injection, schedule: Q01DX009 (ip), vehicle: saline",129 % of control
Nc1ccccc1-c1ccccc1,survivor count,"dose: 150.0 mg/kg/injection, schedule: Q01DX001 (ip), vehicle: saline",1 of 6
same,survivor count,[4],0 of 6
c1ccc2c(c1)c1c(n2N2CCCCC2)CCC1,survivor count,[5],0 of 3
CC1(C)CC(=O)c2c(cc(OS(C)(=O)=O)cc2OS(C)(=O)=O)O1,survivor count,"dose: 25.0 mg/kg/injection, schedule: Q01DX009 (ip), vehicle: Klucel (hydroxypropylcellulose) (HPC)",1 of 3
same,survivor count,"dose: 50.0 mg/kg/injection, schedule: Q01DX009 (ip), vehicle: Klucel (hydroxypropylcellulose) (HPC)",0 of 3 and 2 of 3
same,survivor count,"dose: 100.0 mg/kg/injection, schedule: Q01DX009 (ip), vehicle: Klucel (hydroxypropylcellulose) (HPC)",0 of 3
same,survivor count,"dose: 200.0 mg/kg/injection, schedule: Q01DX009 (ip), vehicle: Klucel (hydroxypropylcellulose) (HPC)",0 of 3
O=C(Nc1ccc(Cl)cc1Cl)P(=O)(O)c1ccccc1,survivor count,"dose: 400.0 mg/kg/injection, schedule: Q04DX002 (ip), vehicle: Klucel (hydroxypropylcellulose) (HPC)",2 of 3
O=[N+]([O-])c1ccc(/C=N/N(Cc2ccccc2)c2ccccc2)s1,survivor count,"dose: 200.0 mg/kg/injection, schedule: Q04DX003 (ip), vehicle: saline with Tween-80",6 of 6
CCCCC(/C=N/N=C(N)N)=N\N=C(N)N,survivor count,"dose: 60.0 mg/kg/injection, schedule: Q01DX Z (ip), vehicle: saline",4 of 6
same,survivor count,"dose: 120.0 mg/kg/injection, schedule: Q01DX Z (ip), vehicle: saline",0 of 6
O=C(O)c1cc(Br)c(Br)s1,survivor count,"dose: 200.0 mg/kg/injection, schedule: Q01DX009 (ip), vehicle: saline with Tween-80",3 of 6
Cn1cc([N+](=O)[O-])c2ccccc2c1=O,survivor count,"dose: 400.0 mg/kg/injection, schedule: Q04DX003 (ip), vehicle: Klucel (hydroxypropylcellulose) (HPC)",0 of 6
C=CC(=O)NCNC(=O)C=C,T/C,"dose: 200.0 mg/kg/injection, schedule: Q04DX003 (ip), vehicle: carboxymethylcellulose (CMC)",130 % of control
same,survivor count,"dose: 800.0 mg/kg/injection, schedule: Q01DX001 (ip), vehicle: saline",0 of 6
O=[As](O)(c1ccccc1)C1CCCCC1O (centres undefined),survivor count,"dose: 100.0 mg/kg/injection, schedule: Q01DX001 (ip), vehicle: saline with Tween-80",3 of 6
same,survivor count,[1],0 of 6
same,survivor count,[2],0 of 6
Clc1cc(Cl)c(C[N+]23CN4CN(CN(C4)C2)C3)cc1Cl,survivor count,[3],0 of 6
Cc1cc(O)c(O)c(C(C)(C)CC(C)(C)C)c1,survivor count,"dose: 100.0 mg/kg/injection, schedule: Q01DX009 (ip), vehicle: saline + alcohol",3 of 6
same,survivor count,"dose: 200.0 mg/kg/injection, schedule: Q01DX009 (ip), vehicle: saline + alcohol",0 of 6
same,survivor count,"dose: 400.0 mg/kg/injection, schedule: Q01DX009 (ip), vehicle: saline + alcohol",0 of 6
COc1ccc(CC2=[N+](C)CCc3cc(OC)c(OC)cc32)cc1OC,survivor count,"dose: 200.0 mg/kg/injection, schedule: Q01DX001 (ip), vehicle: other",3 of 6
